Here are results for three molecules from PMC12029333.

The target in the test is T1, GST-PrkC (Serine/threonine-protein kinase PrkC) (Bacillus subtilis str. 168) (UniProt O34507).
T1 sequence: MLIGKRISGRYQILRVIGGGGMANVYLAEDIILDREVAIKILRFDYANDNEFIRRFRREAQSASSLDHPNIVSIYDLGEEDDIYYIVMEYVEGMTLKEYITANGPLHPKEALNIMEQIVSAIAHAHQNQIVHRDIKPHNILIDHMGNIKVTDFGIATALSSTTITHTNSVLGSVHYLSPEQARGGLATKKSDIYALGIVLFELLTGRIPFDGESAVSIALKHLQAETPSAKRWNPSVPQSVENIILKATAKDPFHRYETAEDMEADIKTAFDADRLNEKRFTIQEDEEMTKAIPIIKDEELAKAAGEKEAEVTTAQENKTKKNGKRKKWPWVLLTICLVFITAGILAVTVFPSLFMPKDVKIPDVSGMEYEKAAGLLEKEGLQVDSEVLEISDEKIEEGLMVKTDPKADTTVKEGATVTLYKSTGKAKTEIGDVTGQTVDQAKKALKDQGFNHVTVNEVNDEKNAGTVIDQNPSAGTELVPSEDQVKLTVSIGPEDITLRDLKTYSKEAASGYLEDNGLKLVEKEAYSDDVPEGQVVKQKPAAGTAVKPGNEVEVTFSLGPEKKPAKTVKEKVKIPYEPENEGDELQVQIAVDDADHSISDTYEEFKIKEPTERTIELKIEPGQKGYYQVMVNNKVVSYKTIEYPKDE
Briefly: affinity purification with mass spectrometry; GST-PrkC on glutathione resin incubated with B. subtilis spore lysate at 4 °C; resin washed; bound proteins eluted with 20 mM reduced glutathione; eluate digested with trypsin and analysed by LC-MS/MS; hits filtered at 1% FDR, >=2 unique peptides; only the target purified.

These are yes or no findings as the source states them, for the method shown. In cells and extracts the contact can be indirect. Here binding means that the protein was enriched with, or labelled near, the bait; the list need not be complete. Sequences can lack the tags named with a protein.

B1: Cytochrome c biogenesis protein ResB (protein, UniProt P35161 1-542)
chain: MKQVKCECGHINPVGTVLCESCGRALQETQPPLADMRYDGSARRSQTYNKTIIDKIWNFFSSVKVGIWLIVITLAASAFGTIFPQEAYLPPGAQADTYYKEQYGTFGQLYYLLGFHHLYGSWWYLLLIASIGISLVICSLDRVIPLYRALKNQGVRRSPAFLRRQRLFSETVTVLNGESKEKIVTLLKKKHYRIREKEGSILAEKGRFSRWGPYVNHIGLIIFLIGAMLRFVPGMYVDETLWVREGETAAIPGTDGKYYLKNNQFSVETYNSKTEKKVFADAIDRVGDGRVAKNFQTDAVLYKREGKIVYGEKPKLEKVTEEDIRVNQPLRFDSFSVYQVDYKENQLDQMVFQLIDKKTKKSFGSLKINLLDPDSVYDLGNGYKVEIASYLPDFYFNQDGEPSTKTKIPNNPAFVFNIITPDKPKGEKSFVAIQETIEGSGNNKYKLKFDHVETKNITGLTVRKDLTLWVLAVGGAIFMIGVIQGMYWQHRRIWLHSQDGAVMVAGHTNKNWFGLKKDLAFILADSGLTEPVDQKELIKTQK
Regarding B1, the binding result is reported as “binds”.

B2: DNA repair protein RecN (protein, UniProt P17894 1-576)
chain: MLAELSIKNFAIIEELTVSFERGLTVLTGETGAGKSIIIDAISLLVGGRGSSEFVRYGEAKAELEGLFLLESGHPVLGVCAEQGIDVSDEMIVMRRDISTSGKSVCRVNGKLVTIASLREIGRLLLDIHGQHDNQLLMEDENHLQLLDKFAGAEVESALKTYQEGYQRYVKLLKKLKQLSESEQEMAHRLDLIQFQLEEIESAKLELNEDEQLQEERQQISNFEKIYESLQNAYNALRSEQGGLDWVGMASAQLEDISDINEPLKKMSESVSNSYYLLEDATFQMRNMLDELEFDPERLNYIETRLNEIKQLKRKYGATVEDILEYASKIEEEIDQIENRDSHLQSLKKELDSVGKDVAVEAANVSQIRKTWAKKLADEIHRELKSLYMEKSTFDTEFKVRTASRNEEAPLVNGQPVQLTEQGIDLVKFLISTNTGEPLKSLSKVASGGELSRVMLAIKSIFSSQQDVTSIIFDEVDTGVSGRVAQAIAEKIHKVSIGSQVLCITHLPQVAAMADTHLYIAKELKDGRTTTRVKPLSKQEKVAEIGRMIAGVEVTDLTKRHAKELLKQADQVKTTG
With B2, the binding result is reported as “binds”.

B3: Carbamoyl phosphate synthase pyrimidine-specific large chain (protein, UniProt P25994 1-1071)
chain: MPKRVDINKILVIGSGPIIIGQAAEFDYAGTQACLALKEEGYEVILVNSNPATIMTDTEMADRVYIEPLTPEFLTRIIRKERPDAILPTLGGQTGLNLAVELSERGVLAECGVEVLGTKLSAIQQAEDRDLFRTLMNELNEPVPESEIIHSLEEAEKFVSQIGFPVIVRPAYTLGGTGGGICSNETELKEIVENGLKLSPVHQCLLEKSIAGYKEIEYEVMRDSQDHAIVVCNMENIDPVGIHTGDSIVVAPSQTLSDREYQLLRNVSLKLIRALGIEGGCNVQLALDPDSFQYYIIEVNPRVSRSSALASKATGYPIAKLAAKIAVGLSLDEMMNPVTGKTYAAFEPALDYVVSKIPRWPFDKFESANRKLGTQMKATGEVMAIGRTLEESLLKAVRSLEADVYHLELKDAADISDELLEKRIKKAGDERLFYLAEAYRRGYTVEDLHEFSAIDVFFLHKLFGIVQFEKELKANAGDTDVLRRAKELGFSDQYISREWKMKESELYSLRKQAGIAPVFKMVDTCAAEFESETPYFYSTYEEENESVVTDKKSVMVLGSGPIRIGQGVEFDYATVHSVWAIKQAGYEAIIVNNNPETVSTDFSISDKLYFEPLTIEDVMHIIDLEQPMGVVVQFGGQTAINLADELSARGVKILGTSLEDLDRAEDRDKFEQALGELGVPQPLGKTATSVNQAVSIASDIGYPVLVRPSYVLGGRAMEIVYHEEELLHYMKNAVKINPQHPVLIDRYLTGKEIEVDAVSDGETVVIPGIMEHIERAGVHSGDSIAVYPPQSLTEDIKKKIEQYTIALAKGLNIVGLLNIQFVLSQGEVYVLEVNPRSSRTVPFLSKITGIPMANLATKIILGQKLAAFGYTEGLQPEQQGVFVKAPVFSFAKLRRVDITLGPEMKSTGEVMGKDSTLEKALYKALIASGIQIPNYGSVLLTVADKDKEEGLAIAKRFHAIGYNILATEGTAGYLKEASIPAKVVGKIGQDGPNLLDVIRNGEAQFVINTLTKGKQPARDGFRIRRESVENGVACLTSLDTAEAILRVLESMTFRADQMPAVNTNQEAAVTI
On to B3, for which the binding entry is “binds”.
